Test results as given in patent US8999661B2, “Compositions for detecting cell death and methods of use thereof” (Dana-Farber Cancer Institute, Inc., priority 2008, dated 2015).
Some entries share one result that the patent states for a list of compounds.

Test system: RS4;11 cells
Test: FACS staining of RS4;11 cells treated with NVP-LAQ824
Type: cell-based
Conditions: staining in Annexin buffer; RS4;11, 50 nM NVP-LAQ824, 24 h
Protocol: RS4;11 is a MLL-AF4 fusion transcript-positive t(4;11) pre-B ALL cell line that is highly resistant to chemotherapy and radiation. In this experiment RS4;11 cells (1×10^6) were treated with 50 nM NVP-LAQ824 (Novartis Pharma, Basel, Switzerland) for 24 h and then contacted with FITC-labeled Annexin V (Abcam, Cambridge, Mass.) or Cy5.5-labeled chicken LDH and analyzed by FACS as in Example 9. NVP-LAQ824 is a potent hydroxamic acid-derived histone deacetylase inhibitor that induces apoptosis in nanomolar concentrations in myeloid leukemia cell lines, multiple myeloma, and patient samples. Catley L et al. (2003) Blood 102:2615-22.
In a related experiment, RS4;11 cells were treated with 50 nM NVP-LAQ824 in culture media for 24 h and then stained with FITC-labeled Annexin V or A680-labeled human LDH-B in either Annexin buffer or culture media. Apoptosis was measured by FACS analysis. Results indicated a significant difference between 11-12 percent apoptotic cells as measured with FITC-labeled Annexin V in Annexin buffer versus only 4 percent apoptotic cells as measured with FITC-labeled Annexin V in culture media. In contrast, results indicated 11-12 percent apoptotic cells as measured with A680-labeled LDH-B, whether in Annexin buffer or culture media.

Substance: FITC-labeled Annexin V: FITC-labeled Annexin V (Abcam), phosphatidylserine-binding apoptosis probe [reference compound]
- apoptotic cells as measured with the probe: 11-12%
